Assay results reported in US20170267762A1.
Results are given in words; binding and its absence hold for the method and conditions named. Some entries that bind do so weakly or less than the wild type.

Chains of the proteins cited; added tags and fusions are not shown. Residues count along the entry.
UniProt Q15116, residues 25-167: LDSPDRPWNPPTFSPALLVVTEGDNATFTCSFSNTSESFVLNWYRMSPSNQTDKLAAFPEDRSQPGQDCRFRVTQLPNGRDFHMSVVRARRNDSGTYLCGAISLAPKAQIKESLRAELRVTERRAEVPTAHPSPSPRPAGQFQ

Target: human PD-1 (construct not stated) (human) (UniProt Q15116)
Assay: Biacore 3000, antibody captured, PD-1 analyte

| Binder | binding |
| --- | --- |
| humanized 13F1 (isotype not stated) (antibody, V domains shown) VH: QVQLQESGPGLVKPSQTLSLTCTVSGYSISSDYAWNWIRQPPGKGLEWMAYISYSGYTSYNPSLKSRITISRDTSKNQFSLKLSSVTAADTAVYYCARSLDYDYGTMDYWGQGTLVTVSS VL: EIVLTQSPATLSLSPGERATLSCRANSSVSSMHWYQQKPGQSPEPWIYAISNLAFGVPARFSGSGSGTDYTLTISSLEPEDFAVYYCQQWSSRPPTFGQGTKLEIK | binds |
| humanized 7A4 (isotype not stated) (antibody, V domains shown) VH: QIQLVQSGSELKKPGASVKVSCKASGYTFTNFGMNWVRQAPGQGLKWMGWISGYTREPTYAADFKGRFVISLDTSVSTAYLQISSLKAEDTAVYYCARDVFDYWGQGTLVTVSS VL: DIVLTQSPASLAVSPGQRATITCRASESVDNYGYSFMNWFQQKPGQPPKLLIYRASNLESGVPARFSGSGSRTDFTLTINPVEANDTANYYCQQSNADPTFGQGTKLEIK | binds |
| humanized 7A4D-hIgG4 (antibody, V domains shown) VH: QIQLVQSGSELKKPGASVKVSCKASGYTFTNFGMNWVRQAPGQGLKWMGWISGYTREPTYAADFKGRFVISLDTSVSTAYLQISSLKAEDTAVYYCARDVFDYWGQGTLVTVSS VL: DIVLTQSPASLAVSPGQRATITCRASESVDNYGYSFMNWFQQKPGQPPKLLIYRASNLESGVPARFSGSGSRTDFTLTINPVEADDTANYYCQQSNADPTFGQGTKLEIKR | binds |
